Experimental data: PubChem BioAssay AID652243 (Drosophila RNAi Screening Center, 2013)
Aim: 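Knock-downs that decrease or increase androgen receptor reporter signal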 (primary screen). Cell system: Drosophila S2R+ cells. Reagent: long dsRNA against Drosophila genes. Duration: 72 h (48 h, then 24 h hormone). Challenge: synthetic androgen R1881 at 10 nM for 24 h. Measured: 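Firefly light from an androgen-responsive reporter and Renilla control light per well, raw and unnormalised, for each of two replicates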. Reading the numbers: firefly reporter light: higher = more light from androgen-responsive reporter; Renilla control light: higher = more constitutive control signal (cell number, transfection). Active means: 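Hit when the log firefly-to-Renilla ratio dropped or increased by a fixed fold versus the mean of GFP or LacZ controls across duplicate plates; lowering cut given as 1.5 and as 3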. Meaning of the calls: active = hit: reporter lowered or raised; inactive = no hit.
The screen tested about 24,000 reagents; this is an unselected part of those with a known target gene and a result. In the full data, 246 (1%) were called active. 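Plates not normalised; calls are printed but the firefly/Renilla ratio behind them is not deposited; fold cut for lowering reported inconsistently.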 Raw values vary from plate to plate and are shown uncorrected. Unmarked entries are inactive. Reagent sequences are not shown. Not given: the amount of reagent.

gene knocked down | dsRNA | firefly reporter light, replicate 1 | firefly reporter light, replicate 2 | Renilla control light, replicate 1 | Renilla control light, replicate 2
dsx-c73A (doublesex cognate 73A) | DRSC09435 | 1.34e5 | 1.09e5 | 1.37e5 | 1.36e5
dsx-c73A (doublesex cognate 73A) | DRSC09914 | 1.85e5 | 1.52e5 | 1.94e6 | 1.61e6
dsx-c73A (doublesex cognate 73A) | DRSC10429 | 3.06e5 | 1.92e5 | 3.44e6 | 2.49e6
tko (technical knockout) | DRSC18844 | 4.64e5 | 3.93e5 | 3.79e6 | 2.64e6
tko (technical knockout) | DRSC27125 | 2.10e5 | 2.92e5 | 7.62e5 | 5.43e5
CG33489 | DRSC10588 | 2.14e5 | 2.35e5 | 2.48e6 | 1.68e6
CG33489 | DRSC26653 | 3.15e5 | 2.97e5 | 4.14e5 | 4.15e5
CG31099 | DRSC14252 | 1.03e5 | 1.61e5 | 2.08e6 | 1.83e6
CG31099 | DRSC23973 | 8.29e5 | 5.69e5 | 1.07e6 | 1.17e6
ND-B15 (NADH dehydrogenase (ubiquinone) B15 subunit) | DRSC06199 | 1.29e5 | 1.49e5 | 2.07e6 | 2.07e6
CG15147 | DRSC02447 | 4.36e5 | 3.90e5 | 3.22e6 | 2.91e6
CG15147 | DRSC02448 | 1.80e5 | 1.35e5 | 1.58e6 | 1.14e6
CG15147 | DRSC27255 | 2.56e5 | 3.07e5 | 5.68e5 | 5.40e5
CG4645 | DRSC19907 | 1.20e5 | 1.38e5 | 6.11e5 | 7.25e5
CG4645 | DRSC24802 | 6.51e5 | 1.12e6 | 3.87e5 | 6.55e5
Atx-1 (Ataxin 1) | DRSC18365 | 3.19e5 | 3.35e5 | 3.40e6 | 3.55e6
Eig71Ek | DRSC11158 | 3.99e5 | 2.72e5 | 3.11e6 | 2.34e6
Polr2C (RNA polymerase II subunit C) | DRSC03415 | 1.15e6 | 3.59e5 | 7.05e5 | 6.68e5
Polr2C (RNA polymerase II subunit C) | DRSC23584 | 3.73e5 | 3.09e5 | 9.43e5 | 4.03e5
Nup358 (Nucleoporin 358kD) | DRSC14410 | 80414 | 80535 | 9.71e5 | 9.84e5
Nup358 (Nucleoporin 358kD) | DRSC29772 | 5.32e5 | 2.99e5 | 1.52e6 | 1.30e6
PolG1 (DNA polymerase gamma subunit 1) | DRSC03621 | 2.57e5 | 3.01e5 | 2.14e6 | 2.36e6
PolG1 (DNA polymerase gamma subunit 1) | DRSC29392 | 3.62e5 | 3.27e5 | 9.08e5 | 9.08e5
Ak6 (Adenylate kinase 6) | DRSC07274 | 4.93e5 | 3.57e5 | 1.51e6 | 1.69e6
